The supplement of paper PMC10849652
The other results are listed elsewhere or left out.

Amino acid sequences for entries named in this document (tags omitted). A change or cut given only in a name is not applied to a line headed by its entry.
UniProt Q6NTF9: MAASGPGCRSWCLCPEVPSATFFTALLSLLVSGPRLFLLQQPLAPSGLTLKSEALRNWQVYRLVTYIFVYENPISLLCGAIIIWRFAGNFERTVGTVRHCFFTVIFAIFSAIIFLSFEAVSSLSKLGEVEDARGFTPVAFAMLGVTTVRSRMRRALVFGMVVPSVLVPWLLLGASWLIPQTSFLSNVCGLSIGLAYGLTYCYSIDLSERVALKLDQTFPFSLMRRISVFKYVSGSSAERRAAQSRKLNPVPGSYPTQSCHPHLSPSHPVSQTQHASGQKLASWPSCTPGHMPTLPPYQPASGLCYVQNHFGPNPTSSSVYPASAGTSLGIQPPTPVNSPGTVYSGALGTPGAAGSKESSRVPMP
UniProt Q9Y580: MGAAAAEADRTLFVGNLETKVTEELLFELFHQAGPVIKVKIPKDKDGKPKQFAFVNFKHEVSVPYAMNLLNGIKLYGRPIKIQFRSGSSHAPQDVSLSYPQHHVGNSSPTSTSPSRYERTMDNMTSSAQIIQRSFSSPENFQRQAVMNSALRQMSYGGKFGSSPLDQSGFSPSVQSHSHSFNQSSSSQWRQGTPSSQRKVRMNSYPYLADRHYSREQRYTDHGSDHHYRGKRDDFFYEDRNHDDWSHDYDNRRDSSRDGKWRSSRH

Assays:
Assay in all cases: log2 fold change, soluble protein after heating vs DMSO (PISA); higher = thermal stabilisation; K562 cells, 10 uM, 30 min; active = over 0.2 and 3.5 SD of the protein, either way, in both replicates (recomputed)
bafetinib = compound: Cc1ccc(NC(=O)c2ccc(CN3CC[C@H](N(C)C)C3)c(C(F)(F)F)c2)cc1Nc1nccc(-c2cncnc2)n1 [bafetinib]
In short: (§1)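 K562 cells at 2×10^6 cells/mL were exposed to 10 μM compound for 30 min, then aliquots were heated for 3 min across 48°C-58°C, pooled, and extracted in PBS containing 0.5% NP-40 at 4°C. The supernatant after 21,000xg for 90 min was taken as soluble protein and measured by TMTpro 16plex LC-MS/MS with channel sums equalised. Thermal stability is reported relative to control samples, with values from duplicates. Fold changes are given on a log2 scale.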

[1] = compound: Cc1cccc(CC(=O)N2CCc3c2ccc(-c2cn(C)c4ncnc(N)c24)c3F)n1
In short: as §1

nilotinib = compound: Cc1cn(-c2cc(NC(=O)c3ccc(C)c(Nc4nccc(-c5cccnc5)n4)c3)cc(C(F)(F)F)c2)cn1 [nilotinib]
In short: as §1

[2] = compound: Cc1nc(Nc2n[nH]c3c2CN(C(=O)N[C@H](CN(C)C)c2ccccc2)C3(C)C)c2sccc2n1
In short: as §1

dasatinib = compound: Cc1nc(Nc2ncc(C(=O)Nc3c(C)cccc3Cl)s2)cc(N2CCN(CCO)CC2)n1 [dasatinib]
In short: as §1

[3] = compound: Cc1ncc(-c2ccnc(Nc3ccc(S(C)(=O)=O)cc3)n2)n1C(C)C
In short: as §1

[4] = compound: Cn1cc(-c2ccc3c(c2)CCN3C(=O)Cc2cccc(C(F)(F)F)c2)c2c(N)ncnc21
In short: as §1

mubritinib = compound: FC(F)(F)c1ccc(/C=C/c2nc(COc3ccc(CCCCn4ccnn4)cc3)co2)cc1 [mubritinib]
In short: as §1

[5] = compound: NC(=O)c1cnc(N[C@@H]2CCCC[C@@H]2N)nc1Nc1cccc(-n2nccn2)c1
In short: as §1

[6] = compound: NC1(c2ccc(-c3nc4ccn5c(=O)[nH]nc5c4cc3-c3ccccc3)cc2)CCC1
In short: as §1

vorinostat = compound: O=C(CCCCCCC(=O)Nc1ccccc1)NO [vorinostat]
In short: as §1

citarinostat = compound: O=C(CCCCCCNC(=O)c1cnc(N(c2ccccc2)c2ccccc2Cl)nc1)NO [citarinostat]
In short: as §1

silmitasertib = compound: O=C(O)c1ccc2c(c1)nc(Nc1cccc(Cl)c1)c1ccncc12 [silmitasertib]
In short: as §1

[7] = compound: O=C1NC(=O)C(c2cnc3ccccn23)=C1c1cn2c3c(cc(F)cc13)CN(C(=O)N1CCCCC1)CC2
In short: as §1

[8] = compound: c1cc(OCCN2CCCCC2)cc(-c2n[nH]c3ccc(-c4nnc[nH]4)cc23)c1
In short: as §1

[9] = compound: Cn1cc(-c2ccc3nnc(C(F)(F)c4ccc5ncccc5c4)n3n2)cn1
In short: as §1

tipifarnib = compound: Cn1cncc1[C@@](N)(c1ccc(Cl)cc1)c1ccc2c(c1)c(-c1cccc(Cl)c1)cc(=O)n2C [tipifarnib]
In short: as §1

[10] = compound: NC(=O)Nc1cc(-c2cccc(F)c2)sc1C(=O)N[C@H]1CCCNC1
In short: as §1

[11] = compound: NCC(=O)Nc1ccc(-n2nc(C(F)(F)F)cc2-c2ccc3c(ccc4ccccc43)c2)cc1
In short: as §1

entinostat = compound: Nc1ccccc1NC(=O)c1ccc(CNC(=O)OCc2cccnc2)cc1 [entinostat]
In short: as §1

Measured: log2 fold change

RHBDD2 isoform 2 (UniProt Q6NTF9)
inactive: bafetinib -0.026 | [1] -0.02 | nilotinib -0.259 | [2] 0.031 | dasatinib 0.029 | [3] -0.148 | [4] 0.016 | mubritinib 0.132 | [5] -0.082 | [6] -0.153 | vorinostat 0.055 | citarinostat 0.036 | silmitasertib -0.011 | [7] 0.135 | [8] -0.01

RNF167 (UniProt Q9H6Y7)
inactive: bafetinib -0.049 | [1] -0.012 | nilotinib 0.049 | [2] -0.014 | dasatinib 0.039 | [3] 0.025 | [4] -0.068 | [9] 0.032 | tipifarnib 0.008 | mubritinib 0.001 | [10] 0.015 | [5] -0.062 | [6] -0.278 | [11] -0.03 | entinostat -0.032 | vorinostat 0.014 | silmitasertib 0.095 | [7] -0.028

RBM7 (UniProt Q9Y580)
inactive: [1] -0.034 | nilotinib -0.131 | [2] 0.224 | dasatinib -0.328 | [3] 0.006 | [4] -0.015 | [9] -0.027 | tipifarnib 0.025 | mubritinib 0.028 | [10] -0.208 | [6] 0.043 | [11] -0.144 | entinostat 0.066 | vorinostat 0.193 | citarinostat -0.077 | silmitasertib -0.03 | [7] 0.164 | [8] -0.156
